Results published in paper doi:10.1101/2022.03.09.483624.
These are yes or no findings as the source states them, for the method shown. In cells and extracts the contact can be indirect. Here binding means that the protein was enriched with, or labelled near, the bait; the list need not be complete. Tags and fused reporters may be left off the sequences shown.

Target: T1, HA-Sin3B-BirA* (UniProt O75182)
T1 sequence: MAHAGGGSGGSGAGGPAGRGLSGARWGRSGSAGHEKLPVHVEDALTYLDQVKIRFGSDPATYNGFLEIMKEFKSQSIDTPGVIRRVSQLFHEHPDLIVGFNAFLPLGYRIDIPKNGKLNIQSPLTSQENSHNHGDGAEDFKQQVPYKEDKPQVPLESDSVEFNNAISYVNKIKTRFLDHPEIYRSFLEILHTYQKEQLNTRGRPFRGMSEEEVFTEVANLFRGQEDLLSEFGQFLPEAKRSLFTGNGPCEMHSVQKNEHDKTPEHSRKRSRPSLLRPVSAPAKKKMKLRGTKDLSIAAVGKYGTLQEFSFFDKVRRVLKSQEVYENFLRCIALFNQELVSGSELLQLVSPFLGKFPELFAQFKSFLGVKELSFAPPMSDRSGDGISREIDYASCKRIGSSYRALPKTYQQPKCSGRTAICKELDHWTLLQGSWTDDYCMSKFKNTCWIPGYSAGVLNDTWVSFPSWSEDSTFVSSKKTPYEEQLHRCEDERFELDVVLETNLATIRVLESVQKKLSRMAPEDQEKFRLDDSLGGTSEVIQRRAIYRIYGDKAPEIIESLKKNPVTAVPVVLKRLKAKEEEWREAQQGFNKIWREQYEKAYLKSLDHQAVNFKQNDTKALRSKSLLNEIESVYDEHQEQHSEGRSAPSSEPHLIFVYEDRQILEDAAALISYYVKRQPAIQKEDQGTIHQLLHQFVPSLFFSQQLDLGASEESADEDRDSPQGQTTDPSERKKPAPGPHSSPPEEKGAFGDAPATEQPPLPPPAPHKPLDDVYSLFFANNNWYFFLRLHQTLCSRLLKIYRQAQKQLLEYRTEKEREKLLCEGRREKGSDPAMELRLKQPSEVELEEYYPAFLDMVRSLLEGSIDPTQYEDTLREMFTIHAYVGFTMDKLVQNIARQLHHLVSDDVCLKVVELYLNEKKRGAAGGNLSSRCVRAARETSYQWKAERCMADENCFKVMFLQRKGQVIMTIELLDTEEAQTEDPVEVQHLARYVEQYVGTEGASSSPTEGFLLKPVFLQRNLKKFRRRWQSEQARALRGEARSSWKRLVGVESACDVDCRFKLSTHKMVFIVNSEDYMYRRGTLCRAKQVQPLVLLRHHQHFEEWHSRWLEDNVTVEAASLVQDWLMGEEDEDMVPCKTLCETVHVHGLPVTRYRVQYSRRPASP
Experiment: proximity labelling

Row | Substance | binding
1 | BRCA2 (from UniProt P51587 1-3418) | binds
2 | RIF1 (from UniProt Q5UIP0 1-2472) | binds
3 | 53BP1 (from UniProt Q12888 1-1972) | binds
